Results from PubChem BioAssay AID504327 (National Center for Advancing Translational Sciences (NCATS), 2011).
Hit rate of the full screen: of about 390,000 compounds, about 820 (0.21%) were called active. The shares of active, inactive and inconclusive entries below differ from those in the screen. The call rests on the fitted dose curve; in most records, active means well fitted inhibition curve with a large enough effect; inconclusive means small, poorly fitted or top-dose-only effect, or another doubt; inactive means no such curve, though single readings can be large or run the other way. Potencies beside an inconclusive call are fits to weak or partial responses and may not hold up.
On the % scale 0 is the no-effect control and ±100 the full control effect; potency means the concentration at half of the fitted maximal effect.

By UniProt entry, the sequences of proteins in these tests, tags left out.
UniProt Q92830, whole entry, looked up: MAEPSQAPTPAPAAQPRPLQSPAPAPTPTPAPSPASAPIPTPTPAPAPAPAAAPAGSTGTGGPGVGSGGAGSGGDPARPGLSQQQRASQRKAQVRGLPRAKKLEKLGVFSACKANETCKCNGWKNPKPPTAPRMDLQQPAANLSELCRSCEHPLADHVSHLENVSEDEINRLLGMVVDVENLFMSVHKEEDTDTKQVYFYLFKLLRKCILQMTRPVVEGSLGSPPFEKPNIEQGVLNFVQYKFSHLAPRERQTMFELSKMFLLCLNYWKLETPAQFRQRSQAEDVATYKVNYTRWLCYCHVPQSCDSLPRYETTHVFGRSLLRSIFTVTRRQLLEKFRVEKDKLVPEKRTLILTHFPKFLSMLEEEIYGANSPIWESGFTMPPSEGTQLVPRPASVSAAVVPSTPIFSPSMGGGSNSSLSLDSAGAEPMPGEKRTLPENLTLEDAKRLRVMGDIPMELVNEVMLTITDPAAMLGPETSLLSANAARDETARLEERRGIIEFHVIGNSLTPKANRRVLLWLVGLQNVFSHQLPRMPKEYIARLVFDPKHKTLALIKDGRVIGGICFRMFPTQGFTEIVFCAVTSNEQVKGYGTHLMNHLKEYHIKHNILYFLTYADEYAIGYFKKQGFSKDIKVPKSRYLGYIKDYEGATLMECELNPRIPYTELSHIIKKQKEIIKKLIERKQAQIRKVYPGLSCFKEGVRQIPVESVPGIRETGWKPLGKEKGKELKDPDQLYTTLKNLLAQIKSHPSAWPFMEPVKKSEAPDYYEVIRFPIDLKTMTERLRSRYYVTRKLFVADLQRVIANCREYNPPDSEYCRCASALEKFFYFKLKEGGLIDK

These compounds were tested against Histone acetyltransferase KAT2A (Homo sapiens) (UniProt Q92830) (assay: qHTS Assay for Inhibitors of GCN5L2). Settings: GCN5L2 HAT assay, ThioGlo1 CoA-SH fluorescence; activity change, negative = inhibition: at 58.9 µM (top of the series) unless noted.
Outline: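 Preincubate 20nM GCN5L2 with compound 15 min, RT → add 50uM ThioGlo1 + 75uM H3(1-25) + 70uM acetyl-CoA → read fluorescence 0 and 20 min. Primary qHTS; fluorescent artifacts likely.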
In the case of `CCc1noc(-c2ccc(N3CCCCC3C)c([N+](=O)[O-])c2)n1` (stereo not drawn), the “activity change, negative = inhibition” value is reported as inactive: -6.73%.
`CCOc1ccccc1NS(=O)(=O)c1ccc(-c2cnc(C3CC3)o2)cc1` was tested, and the Potency was inconclusive: 0.631 µM [inhibitor, full curve, poor fit].
In the case of `C[C@H](NC(=O)c1nc[nH]c1C(=O)N[C@@H](CCCCNC(=O)OC(C)(C)C)C(=O)OC(C)(C)C)C(=O)OCc1ccccc1`, the Potency is reported as inconclusive: 14.1 µM [inhibitor, partial curve].
For `CC(=O)c1ccc(NC(=S)N2CCN(S(=O)(=O)c3ccc(F)cc3)CC2)cc1`, the Potency was inconclusive: 39.8 µM [inhibitor, single point].
For `Cn1c(NCc2ccc(Cl)cc2)nc2ccccc21`, the “activity change, negative = inhibition” value was inactive: -4.5%.
For `S=C(Nc1ccccc1)N1CCN(C/C=C/c2ccccc2)CC1`, the Potency was inconclusive: 39.8 µM [inhibitor, single point].
With `O=C(O)c1ccn2c(C(=O)c3ccc(Cl)cc3)c(-c3ccccc3)cc2c1` the “activity change, negative = inhibition” value was inactive: -22.2%.
In the case of `COc1cc(OC)cc(-c2nnc(SCc3ccc(C(=O)O)cc3)o2)c1`, the Potency is reported as inconclusive: 4.47 µM [inhibitor, full curve, poor fit].
`CCn1nccc1C(=O)Nc1ccc(Cl)cn1` was tested, and the activity change, negative = inhibition was inconclusive: -86.6% [inhibitor] [at 0.501 µM].
In the case of `COc1cc(O)c2c(c1)oc(=O)c1c3cc(O)c(O)cc3oc21`, the Potency is reported as inconclusive: 28.2 µM [inhibitor, single point].
`COc1ccc(NC(=O)c2ccc3c(=O)n4nc(Nc5cccc(Cl)c5C)sc4nc3c2)cc1` was tested, and the “activity change, negative = inhibition” value was inactive: 1.04%.
With `COC(=O)C[C@H](NC(=O)[C@H](C)NC(=O)[C@@H](NC(=O)OCc1ccccc1)C(C)C)C(=O)CF` the “activity change, negative = inhibition” value was inactive: -10.8%.
With `O=C(NC1CCCC1)c1cccc2c1C(=O)c1ccc(N3CCCCC3)cc1S2(=O)=O` the “activity change, negative = inhibition” value was inactive: -6.46%.
With `Cc1ccc(S(=O)(=O)N2CCC(C(=O)Nc3ccccc3N3CCCC3)CC2)c(C)c1` the Potency was inconclusive: 31.6 µM [inhibitor, single point].
For `Cc1ccc(S(=O)(=O)N2[C@@H](c3ccc(C(C)(C)C)cc3)C(C(=O)O)=CC[C@H]2c2cccc(Cl)c2)cc1`, the Potency was inconclusive: 39.8 µM [inhibitor, single point].
With `COc1ccc(OC)c(C2CC(=O)N3CN(c4ccc(C)c(Cl)c4)CSC3=C2C#N)c1` (stereo not drawn) the Potency was active: 14.1 µM.
For `O=C(CCC(=O)N1CCSc2ccccc21)NCc1cccc(Cl)c1`, the Potency was active: 4.47 µM.
With `CCn1c(SCC(=O)N2CCN(c3ccccc3F)CC2)nnc1-c1ccoc1C` the “activity change, negative = inhibition” value was inactive: 2.94%.
With `CCOc1cc(-c2nn3cnnc3s2)cc(OCC)c1OCC` the “activity change, negative = inhibition” value was inactive: -7.42%.
With `N#C/C(=C/c1ccc([N+](=O)[O-])cc1)C(=O)Nc1ccccc1O` the “activity change, negative = inhibition” value was inactive: -10.9%.
In the case of `CCOc1cc2c(cc1/C=C/C(=O)O)OC(C)C2` (stereo not drawn), the Potency is reported as inconclusive: 25.1 µM [inhibitor, single point].
With `CC(=O)c1cc(CN2CCN(Cc3ccc(C)cc3)C(CCO)C2)cs1` (stereo not drawn) the “activity change, negative = inhibition” value was inactive: 1.5%.
`Cc1ccnc(SC2CC(=O)N(c3ccc(F)cc3)C2=O)n1` (stereo not drawn) was tested, and the Potency was inconclusive: 35.5 µM [inhibitor, single point].
With `Cc1sc2ncn(-c3ccccc3)c(=O)c2c1C` the Potency was inconclusive: 39.8 µM [inhibitor, single point].
For `COc1ccc(C(=O)N/N=C/c2ccc3cccc(OCc4ccccc4)c3n2)cc1`, the Potency was inconclusive: 20 µM [inhibitor, partial curve].
In the case of `Cc1cc(O)c2c(c1O)C(=O)[C@]13C(=C2O)C(=O)[C@@H]2[C@@H](O)[C@H]1[C@@H]1[C@H](O)[C@H]3C(=O)C3=C(O)c4c(O)cc(C)c(O)c4C(=O)[C@]312`, the Potency is reported as inconclusive: 25.1 µM [inhibitor, partial curve].
With `COc1ccc(NC(=O)COc2ccc(S(=O)(=O)NC3CCCCC3)cc2)cc1OC` the “activity change, negative = inhibition” value was inactive: -4.01%.
In the case of `CCOc1ccc(NC(=O)c2c(NC(=O)c3ccccc3Br)sc3c2CCC(C)C3)cc1` (stereo not drawn), the Potency is reported as inconclusive: 28.2 µM [inhibitor, single point].
In the case of `O=c1c2cc(NC(=S)NC3CCCCC3)ccc2nc2n1CCCCC2`, the Potency is reported as inconclusive: 28.2 µM [inhibitor, partial curve].
In the case of `O=C(CC12CC3CC(CC(C3)C1)C2)NCc1ccco1`, the Potency is reported as inconclusive: 39.8 µM [inhibitor, single point].
In the case of `CN(C)C(=S)NC(=O)C12CC3CC(C)(CC(C)(C3)C1)C2`, the “activity change, negative = inhibition” value is reported as inactive: -5.46%.
`O=[n+]1cc(-c2cccc3ccccc23)n([O-])c2c1CCC2` was tested, and the activity change, negative = inhibition was inconclusive: -92.7% [inhibitor] [at 0.501 µM].
With `NS(=O)(=O)c1cc(C(=O)O)cc(N2CCCC2)c1Oc1ccccc1` the Potency was inconclusive: 12.6 µM [inhibitor, single point].
In the case of `Cc1c(C(=O)Nc2cc(S(=O)(=O)N3CCOCC3)ccc2N2CCN(C)CC2)oc2ccccc12`, the “activity change, negative = inhibition” value is reported as inactive: -1.88%.
For `O=C(Nc1ccc(Nc2ccccc2)cc1)c1c(F)c(F)c(F)c(F)c1F`, the “activity change, negative = inhibition” value was inactive: -8.69%.
In the case of `CN(C)CCCN1c2ccccc2Sc2ccccc21`, the Potency is reported as inconclusive: 39.8 µM [inhibitor, single point].
With `COc1ccc(Cc2nnc3c4cnn(C)c4ncn23)cc1` the Potency was inconclusive: 1.41 µM [inhibitor, partial curve].
`O=C(Nc1ccc(N2CCN(C(=O)c3ccc(Cl)cc3)CC2)cc1)c1cc2ccccc2o1` was tested, and the Potency was inconclusive: 7.08 µM [inhibitor, single point].
For `Cc1ccc(-c2cc(=O)c3cc(C)ccc3[nH]2)cc1`, the Potency was inconclusive: 89.1 µM [inhibitor, single point].
In the case of `Cc1sc2nc3c4ccccc4c(NCc4ccco4)nn3c(=O)c2c1C`, the Potency is reported as inconclusive: 5.01 µM [inhibitor, full curve, poor fit].
`COC(=O)c1c(NC(=S)Nc2ccccc2Cl)sc(C)c1C` was tested, and the Potency was inconclusive: 35.5 µM [inhibitor, single point].
For `COCc1cc(C)nc2sc3c(=O)n(-c4cccc5ccccc45)nnc3c12`, the Potency was inconclusive: 0.708 µM [inhibitor, single point].
In the case of `CSc1ccc(C=NNc2ccc(S(=O)(=O)Nc3ccccc3C(=O)O)cc2[N+](=O)[O-])cc1`, the Potency is reported as inconclusive: 28.2 µM [inhibitor, partial curve].
With `Cc1ccccc1Nc1nnc(SCc2cc(=O)n3ccsc3n2)s1` the Potency was inconclusive: 0.891 µM [inhibitor, partial curve, poor fit].
With `Cc1nnc(N/N=C/c2cccc(C(F)(F)F)c2)n1N` the “activity change, negative = inhibition” value was inactive: 3.97%.
For `C=CCOc1cccc(C(=O)N2CCCC(Nc3ccc4c(c3)OCCO4)C2)c1` (stereo not drawn), the Potency was inconclusive: 0.891 µM [inhibitor, single point].
For `CN(CC(=O)Nc1c(Cl)cccc1Cl)C(=O)c1cccn1C`, the Potency was inconclusive: 35.5 µM [inhibitor, single point].
In the case of `O=C1COc2ccc(C(=O)COc3ccc([N+](=O)[O-])cc3)cc2N1`, the Potency is reported as inconclusive: 22.4 µM [inhibitor, single point].
In the case of `CCOC(=O)CNC(=O)OC1CCN2Cc3ccccc3N=C12` (stereo not drawn), the Potency is reported as inconclusive: 8.91 µM [inhibitor, partial curve].
In the case of `CN(C(=O)Nc1ccc(Cl)cc1)c1c2c(nn1C)CCCC2`, the Potency is reported as inconclusive: 0.794 µM [inhibitor, single point].
In the case of `Cc1cc(C)nc(N(C#N)CC(=O)N(c2ccccc2)C(C)C)n1`, the Potency is reported as inconclusive: 0.562 µM [inhibitor, partial curve, poor fit].
For `O=C(CSc1nnc(-c2ccccn2)n1-c1ccc(Cl)cc1)Nc1ccc2c(c1)OCO2`, the “activity change, negative = inhibition” value was inactive: -4.55%.
In the case of `Cc1ccc2nc(N3CCN(S(=O)(=O)c4ccc5c(c4)OCCO5)CC3)c(C#N)cc2c1`, the Potency is reported as inconclusive: 0.562 µM [inhibitor, full curve].
In the case of `Cc1nc2cnc(N3CCNCC3)nc2n(C2CC2)c1=O`, the Potency is reported as inconclusive: 31.6 µM [inhibitor, single point].
In the case of `COC(=O)c1cc(NC(=O)Cc2cccs2)cc(C(=O)OC)c1`, the Potency is reported as inconclusive: 28.2 µM [inhibitor, single point].
With `COCCNC(=O)c1cc2sccc2n1C` the Potency was inconclusive: 39.8 µM [inhibitor, single point].
With `COCCN(C(=O)Cc1cccs1)C(C(=O)NCc1ccc(OC)cc1)c1ccc(C(C)C)cc1` (stereo not drawn) the “activity change, negative = inhibition” value was inactive: -7.06%.
With `CCCn1c(/C=C/c2cc[n+](C)cc2)nc2ccccc21` the Potency was inconclusive: 22.4 µM [inhibitor, partial curve].
In the case of `Cc1cc(O)c(C(=O)/C=C/c2cccc([N+](=O)[O-])c2)c(=O)o1`, the Potency is reported as inconclusive: 39.8 µM [inhibitor, single point].
In the case of `Cc1cc[n+]2c3c(cccc13)CCC2`, the “activity change, negative = inhibition” value is reported as inactive: -2.61%.
`Cc1cc(C(=O)Nc2c(C)nn(Cc3c(Cl)cccc3Cl)c2C)no1` was tested, and the Potency was inconclusive: 0.141 µM [inhibitor, full curve, poor fit].
For `O=C(O)c1cc(S(=O)(=O)N2CCN(S(=O)(=O)c3ccccc3)CC2)ccc1Cl`, the Potency was inconclusive: 0.316 µM [inhibitor, full curve, poor fit].
For `Clc1cccc(N2CCN(Cc3nnc(-c4ccccc4)o3)CC2)c1`, the Potency was inconclusive: 39.8 µM [inhibitor, single point].
In the case of `O=C(COC(=O)C1CCC1)NCc1ccc(Cl)cc1Cl`, the “activity change, negative = inhibition” value is reported as inactive: 4.26%.
With `O=C(NC1CCCCCCC1)NC1CCCCC1` the Potency was inconclusive: 0.708 µM [inhibitor, single point].
`CCC(CC)c1nnc(NC(=O)CS(=O)(=O)c2ccc(C)cc2)s1` was tested, and the “activity change, negative = inhibition” value was inactive: -4.77%.
In the case of `CC1(C)CC(=O)C2=C(C1)OC(N)=C(C#N)C21C(=O)N(CN2CCOCC2)c2ccccc21` (stereo not drawn), the “activity change, negative = inhibition” value is reported as inactive: -5.69%.
`COc1c2ccoc2c(OC)c2oc(=O)ccc12` was tested, and the Potency was inconclusive: 28.2 µM [inhibitor, single point].
